Measurements: article PMC2565678
Results are given in words; binding and its absence hold for the method and conditions named. Binding seen in cells or lysates may run through a third protein. Some binding calls cover weakened binding; strength is not graded here.

Protein sequences, listed by entry. Tags and fused reporters are not part of them.
UniProt Q9NQB0: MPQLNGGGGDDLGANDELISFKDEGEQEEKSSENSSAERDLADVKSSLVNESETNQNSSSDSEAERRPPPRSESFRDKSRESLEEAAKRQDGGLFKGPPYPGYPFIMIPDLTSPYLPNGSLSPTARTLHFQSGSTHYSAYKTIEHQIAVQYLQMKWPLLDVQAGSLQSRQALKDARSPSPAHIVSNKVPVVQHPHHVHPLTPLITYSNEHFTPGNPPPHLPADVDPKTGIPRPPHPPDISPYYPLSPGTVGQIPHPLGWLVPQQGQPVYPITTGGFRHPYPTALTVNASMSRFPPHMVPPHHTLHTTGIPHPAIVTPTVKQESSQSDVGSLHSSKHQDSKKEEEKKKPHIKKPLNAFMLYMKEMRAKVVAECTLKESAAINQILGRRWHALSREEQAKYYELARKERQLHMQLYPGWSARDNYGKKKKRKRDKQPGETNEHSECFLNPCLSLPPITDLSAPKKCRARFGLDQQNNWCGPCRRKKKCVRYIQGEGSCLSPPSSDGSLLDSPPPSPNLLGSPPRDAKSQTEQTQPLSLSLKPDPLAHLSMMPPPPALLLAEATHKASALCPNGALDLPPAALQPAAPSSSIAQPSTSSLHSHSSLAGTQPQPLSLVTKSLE
UniProt P35222: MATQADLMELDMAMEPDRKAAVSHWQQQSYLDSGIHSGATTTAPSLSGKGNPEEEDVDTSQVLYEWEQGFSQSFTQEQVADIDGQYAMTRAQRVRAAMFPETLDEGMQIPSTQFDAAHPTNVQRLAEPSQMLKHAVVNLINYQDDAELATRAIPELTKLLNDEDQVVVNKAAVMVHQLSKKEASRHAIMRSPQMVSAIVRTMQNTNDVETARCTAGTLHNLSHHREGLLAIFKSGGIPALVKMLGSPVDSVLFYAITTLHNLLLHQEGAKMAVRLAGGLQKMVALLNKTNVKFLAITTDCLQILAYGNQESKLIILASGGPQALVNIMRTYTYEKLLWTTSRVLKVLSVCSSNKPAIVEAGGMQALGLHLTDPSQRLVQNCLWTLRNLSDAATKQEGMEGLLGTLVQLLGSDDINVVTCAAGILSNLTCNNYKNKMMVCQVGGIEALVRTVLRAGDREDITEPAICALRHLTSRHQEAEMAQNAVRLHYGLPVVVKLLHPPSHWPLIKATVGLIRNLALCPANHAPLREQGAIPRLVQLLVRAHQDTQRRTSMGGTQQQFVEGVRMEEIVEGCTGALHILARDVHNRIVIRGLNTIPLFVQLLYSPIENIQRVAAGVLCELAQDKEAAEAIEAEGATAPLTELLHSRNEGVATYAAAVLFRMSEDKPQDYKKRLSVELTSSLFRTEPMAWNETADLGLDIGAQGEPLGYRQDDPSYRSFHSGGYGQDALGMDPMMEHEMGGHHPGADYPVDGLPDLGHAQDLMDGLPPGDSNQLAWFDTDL
UniProt Q13009: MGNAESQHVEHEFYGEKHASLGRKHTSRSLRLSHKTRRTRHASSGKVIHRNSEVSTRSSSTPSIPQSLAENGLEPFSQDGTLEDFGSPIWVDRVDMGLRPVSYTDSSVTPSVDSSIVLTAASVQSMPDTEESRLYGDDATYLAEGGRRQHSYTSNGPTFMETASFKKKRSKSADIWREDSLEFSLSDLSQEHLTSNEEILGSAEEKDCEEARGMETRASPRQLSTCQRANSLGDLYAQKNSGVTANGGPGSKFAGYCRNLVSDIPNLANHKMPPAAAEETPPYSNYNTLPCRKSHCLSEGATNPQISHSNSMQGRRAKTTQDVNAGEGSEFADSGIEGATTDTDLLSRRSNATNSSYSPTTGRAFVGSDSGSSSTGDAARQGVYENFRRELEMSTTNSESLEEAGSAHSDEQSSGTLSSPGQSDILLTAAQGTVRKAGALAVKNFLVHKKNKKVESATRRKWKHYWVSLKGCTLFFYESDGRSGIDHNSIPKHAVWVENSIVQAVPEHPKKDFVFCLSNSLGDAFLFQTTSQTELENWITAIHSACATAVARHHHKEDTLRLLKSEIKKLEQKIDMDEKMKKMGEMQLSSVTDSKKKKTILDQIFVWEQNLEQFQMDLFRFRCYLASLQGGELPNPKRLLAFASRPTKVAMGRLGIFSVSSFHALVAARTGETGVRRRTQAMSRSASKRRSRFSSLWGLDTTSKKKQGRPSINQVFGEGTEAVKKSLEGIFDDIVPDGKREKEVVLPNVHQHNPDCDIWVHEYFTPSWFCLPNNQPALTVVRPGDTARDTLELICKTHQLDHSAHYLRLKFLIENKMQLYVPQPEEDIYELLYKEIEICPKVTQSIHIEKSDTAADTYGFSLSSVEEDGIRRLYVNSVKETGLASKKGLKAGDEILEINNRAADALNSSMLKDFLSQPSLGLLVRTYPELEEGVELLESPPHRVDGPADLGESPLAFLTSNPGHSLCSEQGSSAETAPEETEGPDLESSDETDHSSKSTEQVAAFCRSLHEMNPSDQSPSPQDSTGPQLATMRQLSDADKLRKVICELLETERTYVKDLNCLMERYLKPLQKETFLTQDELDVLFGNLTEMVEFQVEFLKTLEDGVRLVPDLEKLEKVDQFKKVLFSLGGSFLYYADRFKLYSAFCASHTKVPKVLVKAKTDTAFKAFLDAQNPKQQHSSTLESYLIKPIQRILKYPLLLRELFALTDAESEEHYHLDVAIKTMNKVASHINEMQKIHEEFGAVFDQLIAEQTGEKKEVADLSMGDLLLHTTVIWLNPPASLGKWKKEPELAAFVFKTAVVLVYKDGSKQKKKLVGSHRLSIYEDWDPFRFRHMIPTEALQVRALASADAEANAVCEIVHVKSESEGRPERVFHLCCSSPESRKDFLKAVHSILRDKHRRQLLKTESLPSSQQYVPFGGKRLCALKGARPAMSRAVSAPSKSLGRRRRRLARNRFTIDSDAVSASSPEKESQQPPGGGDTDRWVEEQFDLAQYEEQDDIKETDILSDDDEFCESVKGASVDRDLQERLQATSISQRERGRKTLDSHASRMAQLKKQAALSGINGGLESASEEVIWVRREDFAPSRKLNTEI

Experiments:
Test in all cases: co-IP; whole cell lysates (500 μg) of 293T cells treated with L-CM or Wnt3a-CM for 18 hours, endogenous proteins; IP with 3 μg Tiam1, β-catenin or TCF-4 antibody, immunoblot
[1] = target: endogenous TCF-4 of 293T cells (human (endogenous in 293T)) (UniProt Q9NQB0)
[2] = target: endogenous wild-type β-catenin of 293T cells (human (endogenous in 293T)) (UniProt P35222)
[3] = target: endogenous Tiam1 of 293T cells (human (endogenous in 293T)) (UniProt Q13009)

| binding [1] | binding [2] | binding [3] | Substance |
| --- | --- | --- | --- |
| binds | binds |  | endogenous Tiam1 of 293T cells (from UniProt Q13009 1-1591) |
|  |  | binds | endogenous wild-type β-catenin of 293T cells (from UniProt P35222 1-781) |
